# According to doi:10.1101/2023.08.03.551853:
# No constants are given. Whether binding was seen depends on the method and setting. In cells and extracts the contact can be indirect. These calls come from enrichment with a bait or labelling near it, and not all partners need be listed.
# T1: FAM210A (Family With Sequence Similarity 210 Member A) (UniProt Q8BGY7)
# T1 sequence: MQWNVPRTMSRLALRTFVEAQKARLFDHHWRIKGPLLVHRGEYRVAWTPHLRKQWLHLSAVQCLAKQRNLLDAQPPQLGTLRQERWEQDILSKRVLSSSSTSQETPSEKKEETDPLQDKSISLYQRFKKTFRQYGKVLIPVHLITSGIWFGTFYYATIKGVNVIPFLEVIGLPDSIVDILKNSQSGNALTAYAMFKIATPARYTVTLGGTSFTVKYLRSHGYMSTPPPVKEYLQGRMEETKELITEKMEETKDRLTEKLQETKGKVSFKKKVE
# B1: SUCLG2, the β-subunit in the succinyl-CoA synthetase complex (protein, UniProt Q9Z2I8 39-433)
# chain: LNLQEYQSKKLMSEHGVRVQRFFVANTAKEALEAAKRLNAKEIVLKAQILAGGRGKGVFNSGLKGGVHLTKDPKVVGELAQQMIGYNLATKQTPKEGVKVNKVMVAEALDISRETYLAILMDRSHNGPVIVGSPQGGVDIEEVAASSPELIFKEQIDIFEGIKDSQAQRMAENLGFLGSLKNQAADQITKLYHLFLKIDATQVEVNPFGETPEGQVVCFDAKINFDDNAEFRQKDIFAMDDKSENEPIENEAARYDLKYIGLDGNIACFVNGAGLAMATCDIIFLNGGKPANFLDLGGGVKEAQVYEAFKLLTSDPKVEAILVNIFGGIVNCAIIANGITKACRELELKVPLVVRLEGTNVQEAQNILKSSGLPITSAVDLEDAAKKAVASVAKK
# Target: T1, FAM210A (Family With Sequence Similarity 210 Member A)
# Assay: affinity purification with mass spectrometry
binder,measurement,value
B1,binding,binds
